Laboratory results taken from US6358713B1, “In vitro ribosome evolution” (Johns Hopkins University, priority 1999, dated 2002).
At least one structure is not confirmed: it was looked up by name or label, or the drawing left a doubt.

System: 23S rRNA (2555 loop)
Assay: Antibiotic inhibition of crosslinking by s^4TCPm to 23S rRNA
Type: binding, E. coli
Conditions: antibiotics 0.1 mM (neomycin 0.01 mM, puromycin 1 mM); limiting [32P]-s^4TCPm
Protocol: FIGS. 5A and 5B are graphs that indicate antibiotic inhibition of crosslinking by s^4TCPm to 23S rRNA (5A) and of peptidyl transferase activity of crosslinked complex (s^4TCPm-50S) (5B). Values were normalized to 1.0 for reactions where no antibiotics were included.
Kinetic analysis of crosslinked ribosomal complex: Crosslinked 50S subunits were separated from 30S subunits, gene 32 mRNA, and deacylated tRNA^Phe on 5%-20% sucrose gradients in 10 mM Tris-Cl, pH 7.5, 30 mM NH4Cl, and 1 mM MgCl2, and spun in an SW41 rotor at 19,000 rpm for 16 hours. Excess sucrose was removed and the buffer exchanged to 20 mM Tris, pH 7.5, 100 mM NH4Cl, and 5 mM MgCl2 using Centricon 100 tubes spun at 2600 rpm in an SS34 rotor. Peptidyl transferase assays were done as follows: crosslinked 50S subunit complexes (0.5 μM) were incubated in standard fragment reaction conditions (50 mM Tris, pH 8.3, 0.4 M potassium acetate (KOAc), 60 mM MgCl2, and 33% MeOH) with CACCA-(N-Ac-Phe) (2 μM). Aliquots were removed from the reaction at the indicated times, rRNAs phenol extracted, digested with RNase T1, and the fragments resolved on 24% polyacrylamide/6 M urea gels. […] When incubated with ribosomes at these concentrations, these antibiotics protect specific positions in 16S and 23S rRNA from chemical modification. […] Ribosomal RNAs were phenol extracted and analyzed on a 3.8% polyacrylamide—7 M urea gel. […]

Question: `CCC[C@@H]1C[C@@H](C(=O)N[C@@H]([C@H]2O[C@H](SC)[C@H](O)[C@@H](O)[C@H]2O)[C@H](C)Cl)N(C)C1` [clindamycin] was tested. Which “inhibition of crosslinking of s^4TCPm to the 2555 loop of 23S rRNA” value did it give?
Answer: specifically inhibited
